# Data taken from the supplement of paper PMC8728848.
# This is one part of the list.
# B1: PX9937I-bfa-538-26-538 (Bacteroides fragilis) (protein)
# chain: DKLDLSPIDYYGSGSYWKTEAQATAYIDGIHKHLRDAAWQHTITFGELRGGRFITGASSDGMGVSNGDIILQNFDETHTGVSKFGDLFGRITNLNLFIARVTDATYLSDEMKNFYLGEVYGLRAFYYFDLYRIYGGVPLRLTADVVEGVIDPNKLYMARSTPKEVMTQIKSDLNKSMEYFGNMNDFDPYKRGKKVYWSKAATECLMGEVYLWTSKVTTGDDVANPADLTIAKTHLESVLNNYNLKMLDDFSQVFNAKNKANDEIIFAIRFLEGEATNSNGTFTYNVGTGSTKNRYQANGEVFGDALDIQNTGNQTYEYNKAVYQNFDDADTRKEATFIASYNKDGKTGELSLYGTHVRKNIGYVNAQGARVYCGDYIFYRLPWVYLTLAEIANMEGDNAAVAKYINLVRKRAYGNAWDETLYAYPETADFTTNELAILHEKDKEFIQEGQRWWDLRRMTLTKGGTPLVFCKEGSLLGDAPILNKSTEAHKLLWPIEKTMLNKDPALEQTPGYK
# Tests used:
# Experiment in all cases: glycan array binding signal (z-score within array); higher = stronger binding
# Conditions in all cases: glycan notation: IUPAC condensed, linker removed
# [1] = biological target: Fuc(a1-2)Gal(b1-4)GlcNAc(b1-3)Gal(b1-4)GlcNAc(b1-3)Gal(b1-4)GlcNAc
# How it was run: (§1)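 Glycan array data came from 3228 arrays in the Consortium for Functional Glycomics database, and only arrays with an available protein sequence were kept. Glycan names were put into IUPAC-condensed notation, and columns mapping to the same glycan were averaged. The binding signal is a within-array Z-score, averaged across arrays of one protein sequence run at different concentrations or buffers and across linkers. A negative Z-score can be read as non-binding.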
# [2] = biological target: Fuc(a1-2)Gal(b1-4)GlcNAc(b1-3)GalNAc
# How it was run: as §1
# [3] = biological target: Fuc(a1-2)Gal(b1-4)GlcNAc(b1-3)[Fuc(a1-2)Gal(b1-4)GlcNAc(b1-6)]GalNAc
# How it was run: as §1
# [4] = biological target: Fuc(a1-2)Gal(b1-4)GlcNAc(b1-3)[Fuc(a1-3)[Gal(b1-4)]GlcNAc(b1-6)]Gal(b1-4)Glc
# How it was run: as §1
# [5] = biological target: Fuc(a1-2)Gal(b1-4)GlcNAc(b1-6)GalNAc
# How it was run: as §1
# [6] = biological target: Fuc(a1-2)Gal(b1-4)GlcNAc6S
# How it was run: as §1
# [7] = biological target: Fuc(a1-2)Gal(b1-4)[Fuc(a1-3)]GlcNAc
# How it was run: as §1
# [8] = biological target: Fuc(a1-2)Gal(b1-4)[Fuc(a1-3)]GlcNAc(b1-2)Man(a1-3)[Fuc(a1-2)Gal(b1-4)[Fuc(a1-3)]GlcNAc(b1-2)Man(a1-6)]Man(b1-4)GlcNAc(b1-4)[Fuc(a1-6)]GlcNAc
# How it was run: as §1
# [9] = biological target: Fuc(a1-2)Gal(b1-4)[Fuc(a1-3)]GlcNAc(b1-2)[Fuc(a1-2)Gal(b1-4)[Fuc(a1-3)]GlcNAc(b1-4)]Man(a1-3)[Fuc(a1-2)Gal(b1-4)[Fuc(a1-3)]GlcNAc(b1-2)Man(a1-6)]Man(b1-4)GlcNAc(b1-4)GlcNAc
# How it was run: as §1
# [10] = biological target: Fuc(a1-2)Gal(b1-4)[Fuc(a1-3)]GlcNAc(b1-3)Gal(b1-4)[Fuc(a1-3)]GlcNAc
# How it was run: as §1
# [11] = biological target: Fuc(a1-2)Gal(b1-4)[Fuc(a1-3)]GlcNAc(b1-3)Gal(b1-4)[Fuc(a1-3)]GlcNAc(b1-3)Gal(b1-4)[Fuc(a1-3)]GlcNAc
# How it was run: as §1
# [12] = biological target: Fuc(a1-2)Gal(b1-4)[Fuc(a1-3)]GlcNAc(b1-3)GalNAc
# How it was run: as §1
# [13] = biological target: Fuc(a1-2)Gal(b1-4)[Fuc(a1-3)]GlcNAc(b1-3)[Neu5Ac(a2-6)Gal(b1-4)GlcNAc(b1-6)]Gal(b1-4)Glc
# How it was run: as §1
# [14] = biological target: Fuc(a1-2)Gal3S(b1-4)GlcNAc
# How it was run: as §1
# [15] = biological target: Fuc(a1-2)Gal6S(b1-3)GlcNAc
# How it was run: as §1
# [16] = biological target: Fuc(a1-2)Gal6S(b1-3)GlcNAc6S
# How it was run: as §1
# [17] = biological target: Fuc(a1-2)Gal6S(b1-4)Glc
# How it was run: as §1
# [18] = biological target: Fuc(a1-2)Gal6S(b1-4)Glc6S
# How it was run: as §1
# [19] = biological target: Fuc(a1-2)[Gal(a1-3)]Gal
# How it was run: as §1
# [20] = biological target: Fuc(a1-2)[Gal(a1-3)]Gal(b1-3)GalNAc
# How it was run: as §1
# [21] = biological target: Fuc(a1-2)[Gal(a1-3)]Gal(b1-3)GalNAc(b1-3)Gal(a1-4)Gal(b1-4)Glc
# How it was run: as §1
# [22] = biological target: Fuc(a1-2)[Gal(a1-3)]Gal(b1-3)GlcNAc
# How it was run: as §1
# [23] = biological target: Fuc(a1-2)[Gal(a1-3)]Gal(b1-3)GlcNAc(b1-2)Man(a1-3)[Fuc(a1-2)[Gal(a1-3)]Gal(b1-3)GlcNAc(b1-2)Man(a1-6)]Man(b1-4)GlcNAc(b1-4)GlcNAc
# How it was run: as §1
# [24] = biological target: Fuc(a1-2)[Gal(a1-3)]Gal(b1-3)GlcNAc(b1-2)Man(a1-3)[Fuc(a1-2)[Gal(a1-3)]Gal(b1-3)GlcNAc(b1-2)Man(a1-6)]Man(b1-4)GlcNAc(b1-4)[Fuc(a1-6)]GlcNAc
# How it was run: as §1
# [25] = biological target: Fuc(a1-2)[Gal(a1-3)]Gal(b1-3)GlcNAc(b1-3)GalNAc
# How it was run: as §1
# [26] = biological target: Fuc(a1-2)[Gal(a1-3)]Gal(b1-3)GlcNAc(b1-6)GalNAc
# How it was run: as §1
# [27] = biological target: Fuc(a1-2)[Gal(a1-3)]Gal(b1-4)Glc
# How it was run: as §1
# [28] = biological target: Fuc(a1-2)[Gal(a1-3)]Gal(b1-4)GlcNAc
# How it was run: as §1
# [29] = biological target: Fuc(a1-2)[Gal(a1-3)]Gal(b1-4)GlcNAc(b1-2)Man
# How it was run: as §1
# [30] = biological target: Fuc(a1-2)[Gal(a1-3)]Gal(b1-4)GlcNAc(b1-2)Man(a1-3)[Fuc(a1-2)[Gal(a1-3)]Gal(b1-4)GlcNAc(b1-2)Man(a1-6)]Man(b1-4)GlcNAc(b1-4)GlcNAc
# How it was run: as §1
binder,measurement,setting,value
B1,glycan array binding signal (z-score),[1],-0.532
same,glycan array binding signal (z-score),[2],-0.175
same,glycan array binding signal (z-score),[3],-0.761
same,glycan array binding signal (z-score),[4],-0.397
same,glycan array binding signal (z-score),[5],-0.32
same,glycan array binding signal (z-score),[6],0.645
same,glycan array binding signal (z-score),[7],-0.821
same,glycan array binding signal (z-score),[8],-0.346
same,glycan array binding signal (z-score),[9],-0.408
same,glycan array binding signal (z-score),[10],0.375
same,glycan array binding signal (z-score),[11],-0.436
same,glycan array binding signal (z-score),[12],-0.322
same,glycan array binding signal (z-score),[13],-0.123
same,glycan array binding signal (z-score),[14],-0.854
same,glycan array binding signal (z-score),[15],-0.264
same,glycan array binding signal (z-score),[16],0.625
same,glycan array binding signal (z-score),[17],0.121
same,glycan array binding signal (z-score),[18],2.55
same,glycan array binding signal (z-score),[19],-0.194
same,glycan array binding signal (z-score),[20],-0.393
same,glycan array binding signal (z-score),[21],-0.537
same,glycan array binding signal (z-score),[22],-0.149
same,glycan array binding signal (z-score),[23],0.416
same,glycan array binding signal (z-score),[24],-0.338
same,glycan array binding signal (z-score),[25],-0.498
same,glycan array binding signal (z-score),[26],0.661
same,glycan array binding signal (z-score),[27],-0.412
same,glycan array binding signal (z-score),[28],-1.34
same,glycan array binding signal (z-score),[29],-0.34
same,glycan array binding signal (z-score),[30],0.493

# 2 entries picked at random from the list so far:
binder,measurement,setting,value
B1,glycan array binding signal (z-score),[20],-0.393
same,glycan array binding signal (z-score),[27],-0.412
